The values that follow are results of earlier work, collected in patent US20220142904A1, “A METHOD OF COLORING KERATINOUS MATERIAL COMPRISING THE USE OF AN ORGANOSILICON COMPOUND, A COLORING COMPOUND, A SEALING REAGENT, AND A MIXTURE OF SILICONES” (Henkel AG & Co. KGaA, priority 2019, published 2022).

For the data set the following is noted: 25° C.

On to `CCN(Cc1cccc(S(=O)(=O)[O-])c1)c1ccc(C(=C2C=CC(=[N+](CC)Cc3cccc(S(=O)(=O)[O-])c3)C=C2)c2ccccc2S(=O)(=O)[O-])cc1.[Na+].[Na+]` [Acid Blue 9], for which the solubility in water result was “more than 20 % by weight”.
